Assay results as given in the supplement of paper PMC12067093, “Discovery and optimisation of a covalent ligand for TRIM25 and its application to targeted protein ubiquitination” (Chemical Science, 2025).
The list shows a part of the results.

Chains of the proteins cited; added tags and fusions are not shown. Lines headed by an entry give the natural chain unless they say otherwise; changes in a name come on top.
UniProt P30153, whole entry, looked up: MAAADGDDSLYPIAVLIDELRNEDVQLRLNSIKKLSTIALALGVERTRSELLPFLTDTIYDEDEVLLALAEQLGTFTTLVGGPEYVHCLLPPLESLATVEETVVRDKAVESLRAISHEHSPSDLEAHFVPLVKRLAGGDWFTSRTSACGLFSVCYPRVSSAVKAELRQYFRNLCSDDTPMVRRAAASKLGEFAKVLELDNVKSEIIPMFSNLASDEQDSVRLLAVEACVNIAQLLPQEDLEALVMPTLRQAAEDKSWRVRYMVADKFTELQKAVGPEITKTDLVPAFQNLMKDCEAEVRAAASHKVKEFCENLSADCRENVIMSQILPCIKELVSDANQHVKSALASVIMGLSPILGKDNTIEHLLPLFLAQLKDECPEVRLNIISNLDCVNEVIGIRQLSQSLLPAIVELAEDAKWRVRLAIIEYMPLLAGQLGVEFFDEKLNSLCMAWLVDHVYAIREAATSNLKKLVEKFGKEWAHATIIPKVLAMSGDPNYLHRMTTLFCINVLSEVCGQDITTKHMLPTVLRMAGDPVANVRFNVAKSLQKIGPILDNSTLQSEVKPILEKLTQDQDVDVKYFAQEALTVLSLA
UniProt O43314: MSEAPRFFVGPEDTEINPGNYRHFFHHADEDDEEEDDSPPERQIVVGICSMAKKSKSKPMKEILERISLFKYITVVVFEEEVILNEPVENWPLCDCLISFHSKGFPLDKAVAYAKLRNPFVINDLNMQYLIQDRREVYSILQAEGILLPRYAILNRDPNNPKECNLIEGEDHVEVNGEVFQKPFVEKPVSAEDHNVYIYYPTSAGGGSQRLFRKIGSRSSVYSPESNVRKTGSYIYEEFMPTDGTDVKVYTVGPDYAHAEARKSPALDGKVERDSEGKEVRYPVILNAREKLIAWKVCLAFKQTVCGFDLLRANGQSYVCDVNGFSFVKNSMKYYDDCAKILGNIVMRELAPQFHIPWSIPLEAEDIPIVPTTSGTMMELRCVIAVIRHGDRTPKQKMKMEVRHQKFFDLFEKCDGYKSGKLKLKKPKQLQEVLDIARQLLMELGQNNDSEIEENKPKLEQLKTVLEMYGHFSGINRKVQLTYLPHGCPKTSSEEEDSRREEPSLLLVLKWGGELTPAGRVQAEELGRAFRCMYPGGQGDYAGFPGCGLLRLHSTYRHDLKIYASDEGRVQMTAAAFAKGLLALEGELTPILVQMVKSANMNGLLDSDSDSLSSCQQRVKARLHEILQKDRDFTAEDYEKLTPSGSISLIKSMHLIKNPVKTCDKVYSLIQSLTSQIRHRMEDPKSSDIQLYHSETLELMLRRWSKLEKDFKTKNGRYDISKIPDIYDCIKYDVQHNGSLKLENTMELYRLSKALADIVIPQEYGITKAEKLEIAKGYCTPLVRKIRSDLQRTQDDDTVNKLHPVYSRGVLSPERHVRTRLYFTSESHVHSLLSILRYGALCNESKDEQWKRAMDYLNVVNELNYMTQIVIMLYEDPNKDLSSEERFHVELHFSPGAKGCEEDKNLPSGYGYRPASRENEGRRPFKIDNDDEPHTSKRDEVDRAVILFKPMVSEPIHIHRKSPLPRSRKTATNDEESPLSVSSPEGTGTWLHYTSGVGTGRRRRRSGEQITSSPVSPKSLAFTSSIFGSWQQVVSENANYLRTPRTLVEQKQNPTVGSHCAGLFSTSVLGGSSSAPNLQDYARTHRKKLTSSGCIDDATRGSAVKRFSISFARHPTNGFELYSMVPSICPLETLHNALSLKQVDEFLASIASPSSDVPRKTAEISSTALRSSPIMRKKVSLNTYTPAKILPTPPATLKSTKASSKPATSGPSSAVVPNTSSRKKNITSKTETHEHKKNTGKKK
UniProt Q9Y3C6: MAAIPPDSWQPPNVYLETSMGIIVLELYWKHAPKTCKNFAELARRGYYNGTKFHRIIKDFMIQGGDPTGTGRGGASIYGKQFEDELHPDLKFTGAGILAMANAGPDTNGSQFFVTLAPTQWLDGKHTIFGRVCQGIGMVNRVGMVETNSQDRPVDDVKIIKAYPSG
UniProt Q13162: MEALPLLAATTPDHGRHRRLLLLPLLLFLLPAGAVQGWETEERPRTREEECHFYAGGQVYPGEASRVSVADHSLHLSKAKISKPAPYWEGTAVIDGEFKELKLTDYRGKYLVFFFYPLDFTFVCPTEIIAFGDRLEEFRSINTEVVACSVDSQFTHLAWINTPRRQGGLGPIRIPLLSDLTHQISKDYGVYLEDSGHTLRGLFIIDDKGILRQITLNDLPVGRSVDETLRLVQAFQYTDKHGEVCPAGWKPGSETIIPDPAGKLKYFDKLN
UniProt P48147: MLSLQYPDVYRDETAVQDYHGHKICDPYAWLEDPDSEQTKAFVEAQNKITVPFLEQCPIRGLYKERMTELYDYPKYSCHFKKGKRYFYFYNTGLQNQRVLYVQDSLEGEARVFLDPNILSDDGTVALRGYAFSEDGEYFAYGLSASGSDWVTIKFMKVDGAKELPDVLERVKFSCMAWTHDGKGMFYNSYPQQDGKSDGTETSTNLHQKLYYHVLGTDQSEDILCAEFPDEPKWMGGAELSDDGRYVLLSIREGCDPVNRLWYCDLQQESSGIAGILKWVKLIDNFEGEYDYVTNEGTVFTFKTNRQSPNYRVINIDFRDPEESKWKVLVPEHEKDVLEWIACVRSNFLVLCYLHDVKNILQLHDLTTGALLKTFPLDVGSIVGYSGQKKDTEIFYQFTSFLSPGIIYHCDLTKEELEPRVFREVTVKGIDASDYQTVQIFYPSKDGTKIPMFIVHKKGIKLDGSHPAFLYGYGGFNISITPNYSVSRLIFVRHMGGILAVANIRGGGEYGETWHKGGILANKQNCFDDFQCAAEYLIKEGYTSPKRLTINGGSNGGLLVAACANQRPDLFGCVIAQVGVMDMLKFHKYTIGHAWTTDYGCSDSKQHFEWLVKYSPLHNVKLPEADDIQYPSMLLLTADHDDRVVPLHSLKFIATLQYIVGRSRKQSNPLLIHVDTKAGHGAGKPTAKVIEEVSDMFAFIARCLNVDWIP
UniProt Q96SB3: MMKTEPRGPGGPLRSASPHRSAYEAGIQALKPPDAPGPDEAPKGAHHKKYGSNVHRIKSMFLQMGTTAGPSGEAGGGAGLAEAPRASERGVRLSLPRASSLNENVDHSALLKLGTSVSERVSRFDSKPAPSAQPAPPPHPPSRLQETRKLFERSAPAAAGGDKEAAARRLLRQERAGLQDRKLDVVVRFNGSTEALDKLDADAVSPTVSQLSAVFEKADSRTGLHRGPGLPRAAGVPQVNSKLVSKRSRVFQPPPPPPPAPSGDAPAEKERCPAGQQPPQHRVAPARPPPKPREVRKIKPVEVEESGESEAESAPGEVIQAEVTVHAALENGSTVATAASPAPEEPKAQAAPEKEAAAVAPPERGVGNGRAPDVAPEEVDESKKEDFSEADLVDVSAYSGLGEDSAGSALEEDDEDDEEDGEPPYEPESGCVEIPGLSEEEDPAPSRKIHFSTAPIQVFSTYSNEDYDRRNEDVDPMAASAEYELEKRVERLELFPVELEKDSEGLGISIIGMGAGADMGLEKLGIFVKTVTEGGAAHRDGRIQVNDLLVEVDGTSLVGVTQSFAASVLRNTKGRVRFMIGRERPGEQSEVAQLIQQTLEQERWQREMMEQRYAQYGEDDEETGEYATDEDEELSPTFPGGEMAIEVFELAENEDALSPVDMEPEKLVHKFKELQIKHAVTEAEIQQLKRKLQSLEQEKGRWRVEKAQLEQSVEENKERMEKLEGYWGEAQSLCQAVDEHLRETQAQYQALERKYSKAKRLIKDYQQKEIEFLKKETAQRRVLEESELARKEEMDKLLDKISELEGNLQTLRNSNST
UniProt P62714, whole entry: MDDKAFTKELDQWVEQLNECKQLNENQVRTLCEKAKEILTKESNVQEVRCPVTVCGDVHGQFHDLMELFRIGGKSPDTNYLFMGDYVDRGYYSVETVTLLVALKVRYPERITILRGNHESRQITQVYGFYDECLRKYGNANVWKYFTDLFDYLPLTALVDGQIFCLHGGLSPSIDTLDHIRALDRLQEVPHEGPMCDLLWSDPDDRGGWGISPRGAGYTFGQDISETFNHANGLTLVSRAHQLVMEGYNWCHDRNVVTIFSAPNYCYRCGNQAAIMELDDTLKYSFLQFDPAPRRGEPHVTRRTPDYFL
UniProt P50897: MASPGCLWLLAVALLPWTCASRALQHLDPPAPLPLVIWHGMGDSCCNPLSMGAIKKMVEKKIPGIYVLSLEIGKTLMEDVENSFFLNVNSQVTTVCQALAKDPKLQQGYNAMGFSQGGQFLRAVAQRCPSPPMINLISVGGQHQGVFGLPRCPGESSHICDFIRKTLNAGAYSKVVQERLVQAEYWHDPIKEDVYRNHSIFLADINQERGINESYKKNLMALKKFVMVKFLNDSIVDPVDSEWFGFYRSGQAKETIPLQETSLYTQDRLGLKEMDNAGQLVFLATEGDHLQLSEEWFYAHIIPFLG
UniProt O15355: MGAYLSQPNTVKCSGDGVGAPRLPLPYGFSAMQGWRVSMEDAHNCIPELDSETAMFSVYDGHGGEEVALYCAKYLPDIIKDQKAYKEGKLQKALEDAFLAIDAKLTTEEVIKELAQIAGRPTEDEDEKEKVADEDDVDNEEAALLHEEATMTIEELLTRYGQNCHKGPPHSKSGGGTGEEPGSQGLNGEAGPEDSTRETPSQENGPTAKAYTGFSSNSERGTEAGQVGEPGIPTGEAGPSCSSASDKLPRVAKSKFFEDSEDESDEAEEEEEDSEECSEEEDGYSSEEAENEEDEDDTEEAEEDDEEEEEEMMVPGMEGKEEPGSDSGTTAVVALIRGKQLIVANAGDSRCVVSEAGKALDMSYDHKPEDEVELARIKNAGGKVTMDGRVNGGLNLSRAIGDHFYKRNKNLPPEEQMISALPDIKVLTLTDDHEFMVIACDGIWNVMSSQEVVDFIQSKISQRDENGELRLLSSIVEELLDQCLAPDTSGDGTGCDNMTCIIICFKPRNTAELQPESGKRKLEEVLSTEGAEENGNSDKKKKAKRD
UniProt Q96QH2: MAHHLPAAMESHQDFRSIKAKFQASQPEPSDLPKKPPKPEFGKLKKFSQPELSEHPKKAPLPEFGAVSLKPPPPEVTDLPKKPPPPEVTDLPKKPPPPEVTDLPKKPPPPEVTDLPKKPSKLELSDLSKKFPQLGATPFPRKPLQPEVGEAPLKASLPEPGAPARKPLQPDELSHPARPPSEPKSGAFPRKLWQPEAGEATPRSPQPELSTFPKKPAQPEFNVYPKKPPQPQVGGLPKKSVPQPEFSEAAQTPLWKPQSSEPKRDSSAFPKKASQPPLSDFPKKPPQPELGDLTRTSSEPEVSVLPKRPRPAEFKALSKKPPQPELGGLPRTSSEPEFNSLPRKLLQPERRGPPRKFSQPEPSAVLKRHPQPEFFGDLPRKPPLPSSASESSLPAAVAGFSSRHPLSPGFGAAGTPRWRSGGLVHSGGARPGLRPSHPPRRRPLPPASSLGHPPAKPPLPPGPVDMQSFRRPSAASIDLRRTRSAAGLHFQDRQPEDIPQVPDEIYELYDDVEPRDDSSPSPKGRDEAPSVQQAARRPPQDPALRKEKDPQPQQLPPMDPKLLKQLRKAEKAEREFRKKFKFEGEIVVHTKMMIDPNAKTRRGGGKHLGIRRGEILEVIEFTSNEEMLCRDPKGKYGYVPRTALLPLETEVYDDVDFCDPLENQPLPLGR
UniProt P53041: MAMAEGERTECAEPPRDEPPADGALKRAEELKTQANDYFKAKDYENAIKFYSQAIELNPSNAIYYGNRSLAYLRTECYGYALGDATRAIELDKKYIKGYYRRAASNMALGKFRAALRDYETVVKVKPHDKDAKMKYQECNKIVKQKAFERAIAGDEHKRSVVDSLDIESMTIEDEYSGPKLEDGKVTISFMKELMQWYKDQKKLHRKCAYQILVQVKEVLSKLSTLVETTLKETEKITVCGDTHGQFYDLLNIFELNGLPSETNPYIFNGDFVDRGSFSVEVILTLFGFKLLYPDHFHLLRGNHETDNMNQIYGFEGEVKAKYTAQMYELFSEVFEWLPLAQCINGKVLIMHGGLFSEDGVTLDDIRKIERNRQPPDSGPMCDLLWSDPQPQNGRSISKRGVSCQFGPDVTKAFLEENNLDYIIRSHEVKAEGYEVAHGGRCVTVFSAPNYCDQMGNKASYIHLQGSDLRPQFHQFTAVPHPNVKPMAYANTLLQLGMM
UniProt P30041: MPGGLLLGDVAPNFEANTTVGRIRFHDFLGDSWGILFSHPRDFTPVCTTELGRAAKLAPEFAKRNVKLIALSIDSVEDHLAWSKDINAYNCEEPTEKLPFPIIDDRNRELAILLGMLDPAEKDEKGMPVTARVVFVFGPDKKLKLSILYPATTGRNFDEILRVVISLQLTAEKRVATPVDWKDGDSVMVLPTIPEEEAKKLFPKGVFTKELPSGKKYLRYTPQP

Compound: CC1Cc2ccccc2N1C(=O)C1CCCN(C1)C(=O)CCl (mixture of isomers) [TRIM25 ligand 11 (diastereomer mixture)]
Test: probe-labelled cysteine peptide fold change vs DMSO (competition) (log2 fold change); higher = less target engagement (more negative = stronger competition)
Details: THP-1, incubation time: 4 h
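Also: competitive chemoproteomic profiling in live THP-1 cells with an iodoacetamide desthiobiotin (IA-DTB) probe, comparing probe-labelled peptide intensities in compound-treated cells against DMSO-treated controls.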

Target	probe-labelled cysteine peptide fold change (10 µM)	probe-labelled cysteine peptide fold change (50 µM)
PPP2R1A_P30153_329_ENVIMSQILPCIK (UniProt P30153)	0.0298	-0.00632
PPP1R8_Q12972_16_AAAANSGSSLPLFDCPTWAGKPPPGLHLDVVK (UniProt Q12972)	0.176	0.0528
PPP1R8_Q12972_67_NPDLCDFTIDHQSCSR (UniProt Q12972)	0.282	-0.231
PPIP5K2_O43314_338_YYDDCAK (UniProt O43314)	-0.000116	0.0833
PPIL1_Q9Y3C6_133_VCQGIGMVNR (UniProt Q9Y3C6)	0.108	-0.00608
PPIP5K2_O43314_298_VCLAFK (UniProt O43314)	-0.12	0.219
PRDX4_Q13162_51_TREEECHFYAGGQVYPGEASR (UniProt Q13162)	-0.0678	-0.034
PPIP5K2_O43314_488_VQLTYLPHGCPK (UniProt O43314)	0.00421	-0.0556
PREP_P48147_532_QNCFDDFQCAAEYLIK (UniProt P48147)	0.0303	0.0998
PPP2R1A_P30153_512_MTTLFCINVLSEVCGQDITTK (UniProt P30153)	0.0527	0.183
PPIG_Q13427_63_SCLFHR (UniProt Q13427)	-0.0907	-0.0397
PPP1R9B_Q96SB3_732_LEGYWGEAQSLCQAVDEHLR (UniProt Q96SB3)	0.347	0.254
PREP_P48147_25_ICDPYAWLEDPDSEQTK (UniProt P48147)	0.208	-0.0381
PPP1R8_Q12972_16_AAAANSGSSLPLFDCPTWAGKPPPGLHLDVVKGDK (UniProt Q12972)	-0.117	-0.26
PRC1_O43663_136_LLQEQDQELCEILCMPHYDIDSASVPSLEELNQFR (UniProt O43663)	-0.23	-0.122
PPIP5K2_O43314_164_ECNLIEGEDHVEVNGEVFQK (UniProt O43314)	0.141	0.18
PPP2CB_P62714_20_ELDQWVEQLNECK (UniProt P62714)	-0.0508	0.0214
PPP3CB_P16298_477_ICSFEEAK (UniProt P16298)	-0.0332	-0.105
PPT1_P50897_128_CPSPPMINLISVGGQHQGVFGLPR (UniProt P50897)	-0.046	-0.182
PPM1G_O15355_13_CSGDGVGAPR (UniProt O15355)	-0.113	-0.118
PRAM1_Q96QH2_629_RGEILEVIEFTSNEEMLCRDPK (UniProt Q96QH2)	-0.103	-0.0439
PPP5C_P53041_208_KCAYQILVQVK (UniProt P53041)	0.045	-0.16
PRDX6_P30041_47_DFTPVCTTELGR (UniProt P30041)	-0.0861	-0.0664
PPT1_P50897_152_CPGESSHICDFIR (UniProt P50897)	0.119	-0.171
PPP6R3_Q5H9R7_830_LSTSQDAACK (UniProt Q5H9R7)	-0.1	-0.219
PPM1G_O15355_351_CVVSEAGK (UniProt O15355)	0.0181	-0.115

Looked up above:
probe-labelled cysteine peptide fold change (50 µM), PREP_P48147_532_QNCFDDFQCAAEYLIK (UniProt P48147) reads 0.0998
probe-labelled cysteine peptide fold change (50 µM), PPP5C_P53041_208_KCAYQILVQVK (UniProt P53041) reads -0.16
